Data set [1] in a line: Visual observation of gelation of peptide and peptide:GAG samples (systematic mixing study). It is filed as physicochemical. Conditions: what triggers gelation, 20 mg/ml. The procedure: Preparation of Peptide Solutions
Solutions of peptides were prepared directly in either D2O or H2O containing either 130 or 200 mM NaCl or PBS. Peptide concentrations in the millimolar range given for the NMR studies were values multiplied by an appropriate factor to account for the actual percentage peptide content. The samples were vortexed for 20 seconds, and then sonicated for 15 minutes. Solution pD was measured and adjusted to either 7.4 or 6.0±0.5 using a calibrated pH meter and the relation pD =pH meter reading +0.417. Any adjustment of pD, if necessary, was made with minimal μL volumes of either HCl or DCl and/or either NaOH or NaOD. Finally, solution vials were closed, sealed with PTFE tape, and then warmed to approximately 80° C. to maximise peptide solubility. Solutions were left to equilibrate at room temperature.
Preparation of Peptide:Glycosaminoglycan Gels.
The concentration of peptide was kept constant for each sample (20 mg/ml) and the molar ratio of GAG subunit to one peptide was increased. The samples were named by the number of GAG subunits to each peptide present e.g. P11-12:GAG 1:10=one P11-12 peptide monomer to ten GAG dimer subunits. GAG was added to peptide solutions after preparation as stated above. The mixtures were vortexed as heated again to ensure complete mixing.
The effects of mixing chondroitin sulphate GAG with the peptides were investigated. It was hypothesised that the charged GAG chains would interact electrostatically with the charged peptides. To establish whether such an interaction was possible, visual observations of a systematic mixing study was carried out and the morphology of the aggregates formed during mixing studied using TEM. • P11-4: […]

Data set [2] in a line: Transmission electron microscopy study of peptide:glycosaminoglycan gels. It is filed as physicochemical. To be noted: TEM. The source says:
Transmission Electron Microscopy Study of Peptide: Glycosaminoglycan Gels
Electron microscope (EM) grids (copper 300 mesh) were coated with carbon prior to use, by the flotation of a carbon film from a mica sheet onto the grids. The EM grids were then glow discharged prior to sample application to ensure adhesion of the sample to the EM grid. Peptide gels prepared in phosphate buffered saline solution were quickly diluted by various factors in pure water. The EM grids were touched onto the peptide solutions for one minute. The grid was air-dried and then negatively stained with uranyl acetate solution (4% w/v) for 20 seconds and air-dried. TEM images were obtained using a Philips CM10 electron microscope operating at 80 kV accelerating voltage. Images were obtained quickly to avoid artefacts and destruction of the sample.

For the substance Ac-QQRFEWEFEQQ-NH2 [Peptide P11-4], the Trigger entry in data set [1] is recorded as “pH”.
As for Ac-SSRFEWEFESS-NH2 [Peptide P11-9], the Trigger result in data set [1] is listed as “pH”. The width of ribbons in data set [2] (negatively stained, samples months old) was 3-5 nm.
Regarding “CH3CO-Q-Q-R-F-O-W-O-F-E-Q-Q-NH2 [Peptide P11-8]”, the Trigger result in data set [1] is given as “pH”.
“CH3CO-S-S-R-F-O-W-O-F-E-S-S-NH2 [Peptide P11-12]”: in data set [1], the Trigger result is on record as “pH”. Besides, in data set [2] (diluted to approximately 20 μM), the “twist pitch of helical structures” value is on record as “approx 230 nm”, the “twist pitch of tubular structures” value is around 165 nm and the “width of tubular structures” value is 25±2 nm.

Source of the values: patent publication US9937265B2, “Self-assembling peptide and polysaccharide complexes” (University of Leeds, priority 2013, dated 2018).
